Binding data for three molecules are collected here from article doi:10.1101/787473.

Assay in all cases: co-sedimentation
Experiment [1] has as its target T1, PR10, synthetic poly-proline-arginine 10-mer dipeptide repeat protein with C-terminal lysine and cysteine.
T1 sequence (peptide): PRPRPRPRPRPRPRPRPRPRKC

The target of experiment [2] is T2, GR10, synthetic poly-glycine-arginine 10-mer dipeptide repeat protein with C-terminal lysine and cysteine.
T2 sequence (peptide): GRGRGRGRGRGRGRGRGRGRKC

Experiment [3] addresses T1, PR10, synthetic poly-proline-arginine 10-mer dipeptide repeat protein with C-terminal lysine and cysteine. This is another data set of the same source.
Experiment [4] deals with T2, GR10, synthetic poly-glycine-arginine 10-mer dipeptide repeat protein with C-terminal lysine and cysteine. The source holds these as a separate data set.

Read-outs that look alike come from different tables or passages of the source. Results are given in words; binding and its absence hold for the method and conditions named. In cells and extracts the contact can be indirect. Some entries that bind do so weakly or less than the wild type.

B1: Matrin-3, endogenous in HEK cell lysate (protein, UniProt P43243 1-847)
chain: MSKSFQQSSLSRDSQGHGRDLSAAGIGLLAAATQSLSMPASLGRMNQGTARLASLMNLGMSSSLNQQGAHSALSSASTSSHNLQSIFNIGSRGPLPLSSQHRGDADQASNILASFGLSARDLDELSRYPEDKITPENLPQILLQLKRRRTEEGPTLSYGRDGRSATREPPYRVPRDDWEEKRHFRRDSFDDRGPSLNPVLDYDHGSRSQESGYYDRMDYEDDRLRDGERCRDDSFFGETSHNYHKFDSEYERMGRGPGPLQERSLFEKKRGAPPSSNIEDFHGLLPKGYPHLCSICDLPVHSNKEWSQHINGASHSRRCQLLLEIYPEWNPDNDTGHTMGDPFMLQQSTNPAPGILGPPPPSFHLGGPAVGPRGNLGAGNGNLQGPRHMQKGRVETSRVVHIMDFQRGKNLRYQLLQLVEPFGVISNHLILNKINEAFIEMATTEDAQAAVDYYTTTPALVFGKPVRVHLSQKYKRIKKPEGKPDQKFDQKQELGRVIHLSNLPHSGYSDSAVLKLAEPYGKIKNYILMRMKSQAFIEMETREDAMAMVDHCLKKALWFQGRCVKVDLSEKYKKLVLRIPNRGIDLLKKDKSRKRSYSPDGKESPSDKKSKTDGSQKTESSTEGKEQEEKSGEDGEKDTKDDQTEQEPNMLLESEDELLVDEEEAAALLESGSSVGDETDLANLGDVASDGKKEPSDKAVKKDGSASAAAKKKLKKVDKIEELDQENEAALENGIKNEENTEPGAESSENADDPNKDTSENADGQSDENKDDYTIPDEYRIGPYQPNVPVGIDYVIPKTGFYCKLCSLFYTNEEVAKNTHCSSLPHYQKLKKFLNKLAEERRQKKET
With B1, the binding result in experiment [1], in experiment [2], in experiment [3] and in experiment [4] was “binds” throughout.

B2: nucleoporin 54, endogenous in HEK cell lysate (protein, UniProt Q7Z3B4 1-507)
chain: MAFNFGAPSGTSGTAAATAAPAGGFGGFGTTSTTAGSAFSFSAPTNTGTTGLFGGTQNKGFGFGTGFGTTTGTSTGLGTGLGTGLGFGGFNTQQQQQTTLGGLFSQPTQAPTQSNQLINTASALSAPTLLGDERDAILAKWNQLQAFWGTGKGYFNNNIPPVEFTQENPFCRFKAVGYSCMPSNKDEDGLVVLVFNKKETEIRSQQQQLVESLHKVLGGNQTLTVNVEGTKTLPDDQTEVVIYVVERSPNGTSRRVPATTLYAHFEQANIKTQLQQLGVTLSMTRTELSPAQIKQLLQNPPAGVDPIIWEQAKVDNPDSEKLIPVPMVGFKELLRRLKVQDQMTKQHQTRLDIISEDISELQKNQTTSVAKIAQYKRKLMDLSHRTLQVLIKQEIQRKSGYAIQADEEQLRVQLDTIQGELNAPTQFKGRLNELMSQIRMQNHFGAVRSEERYYIDADLLREIKQHLKQQQEGLSHLISIIKDDLEDIKLVEHGLNETIHIRGGVFS
On to B2, for which the binding entry in experiment [3] and in experiment [4] was “binds” each time.

B3: nucleoporin 133, endogenous in HEK cell lysate (protein, UniProt Q8WUM0 1-1156)
chain: MFPAAPSPRTPGTGSRRGPLAGLGPGSTPRTASRKGLPLGSAVSSPVLFSPVGRRSSLSSRGTPTRMFPHHSITESVNYDVKTFGSSLPVKVMEALTLAEVDDQLTINIDEGGWACLVCKEKLIIWKIALSPITKLSVCKELQLPPSDFHWSADLVALSYSSPSGEAHSTQAVAVMVATREGSIRYWPSLAGEDTYTEAFVDSGGDKTYSFLTAVQGGSFILSSSGSQLIRLIPESSGKIHQHILPQGQGMLSGIGRKVSSLFGILSPSSDLTLSSVLWDRERSSFYSLTSSNISKWELDDSSEKHAYSWDINRALKENITDAIWGSESNYEAIKEGVNIRYLDLKQNCDGLVILAAAWHSADNPCLIYYSLITIEDNGCQMSDAVTVEVTQYNPPFQSEDLILCQLTVPNFSNQTAYLYNESAVYVCSTGTGKFSLPQEKIVFNAQGDSVLGAGACGGVPIIFSRNSGLVSITSRENVSILAEDLEGSLASSVAGPNSESMIFETTTKNETIAQEDKIKLLKAAFLQYCRKDLGHAQMVVDELFSSHSDLDSDSELDRAVTQISVDLMDDYPASDPRWAESVPEEAPGFSNTSLIILHQLEDKMKAHSFLMDFIHQVGLFGRLGSFPVRGTPMATRLLLCEHAEKLSAAIVLKNHHSRLSDLVNTAILIALNKREYEIPSNLTPADVFFREVSQVDTICECLLEHEEQVLRDAPMDSIEWAEVVINVNNILKDMLQAASHYRQNRNSLYRREESLEKEPEYVPWTATSGPGGIRTVIIRQHEIVLKVAYPQADSNLRNIVTEQLVALIDCFLDGYVSQLKSVDKSSNRERYDNLEMEYLQKRSDLLSPLLSLGQYLWAASLAEKYCDFDILVQMCEQTDNQSRLQRYMTQFADQNFSDFLFRWYLEKGKRGKLLSQPISQHGQLANFLQAHEHLSWLHEINSQELEKAHATLLGLANMETRYFAKKKTLLGLSKLAALASDFSEDMLQEKIEEMAEQERFLLHQETLPEQLLAEKQLNLSAMPVLTAPQLIGLYICEENRRANEYDFKKALDLLEYIDEEEDININDLKLEILCKALQRDNWSSSDGKDDPIEVSKDSIFVKILQKLLKDGIQLSEYLPEVKDLLQADQLGSLKSNPYFEFVLKANYEYYVQGQI
As for B3, the binding entry in experiment [3] and in experiment [4] was “binds” each time.
